In article PMC2680019 one finds binding data, which are given here for 2 substances.

The target of assay [1] is T1, Myc-tagged Tensin2 1-1272 (ΔPTB) (UniProt Q63HR2).
T1 sequence: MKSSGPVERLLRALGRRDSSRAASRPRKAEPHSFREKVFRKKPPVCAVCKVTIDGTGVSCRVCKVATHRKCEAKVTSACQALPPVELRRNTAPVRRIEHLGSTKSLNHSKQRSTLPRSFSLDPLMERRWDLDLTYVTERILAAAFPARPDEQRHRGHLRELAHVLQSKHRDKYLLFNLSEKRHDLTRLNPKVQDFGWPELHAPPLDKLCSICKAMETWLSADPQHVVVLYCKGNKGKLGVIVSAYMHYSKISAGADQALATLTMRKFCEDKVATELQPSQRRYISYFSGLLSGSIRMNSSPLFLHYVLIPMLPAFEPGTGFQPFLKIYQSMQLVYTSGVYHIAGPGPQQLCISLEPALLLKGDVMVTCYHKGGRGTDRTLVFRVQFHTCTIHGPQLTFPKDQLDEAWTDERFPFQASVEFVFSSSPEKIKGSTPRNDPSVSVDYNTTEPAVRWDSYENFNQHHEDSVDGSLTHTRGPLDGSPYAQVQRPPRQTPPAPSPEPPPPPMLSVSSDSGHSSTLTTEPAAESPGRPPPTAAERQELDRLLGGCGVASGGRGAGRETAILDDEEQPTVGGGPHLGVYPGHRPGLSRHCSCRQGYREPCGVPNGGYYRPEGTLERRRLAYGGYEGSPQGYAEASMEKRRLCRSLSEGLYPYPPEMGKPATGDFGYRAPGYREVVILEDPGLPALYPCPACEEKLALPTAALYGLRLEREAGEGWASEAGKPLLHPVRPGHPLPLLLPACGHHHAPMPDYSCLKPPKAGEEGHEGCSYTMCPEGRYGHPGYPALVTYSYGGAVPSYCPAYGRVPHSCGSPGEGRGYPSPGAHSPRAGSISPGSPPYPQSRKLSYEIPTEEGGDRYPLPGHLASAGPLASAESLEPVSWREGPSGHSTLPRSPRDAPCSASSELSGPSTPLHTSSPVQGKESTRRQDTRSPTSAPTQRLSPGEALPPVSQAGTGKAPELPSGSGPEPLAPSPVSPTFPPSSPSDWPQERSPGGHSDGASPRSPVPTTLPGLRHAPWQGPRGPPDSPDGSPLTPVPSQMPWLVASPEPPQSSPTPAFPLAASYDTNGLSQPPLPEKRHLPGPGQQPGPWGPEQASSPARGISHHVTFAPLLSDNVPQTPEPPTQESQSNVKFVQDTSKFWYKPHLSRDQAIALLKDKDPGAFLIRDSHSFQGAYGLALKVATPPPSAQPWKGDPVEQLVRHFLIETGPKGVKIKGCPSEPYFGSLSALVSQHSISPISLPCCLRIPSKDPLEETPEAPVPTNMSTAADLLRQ
Nature of the assay: co-IP; HEK293T co-transfected with Myc-tagged tensin and FLAG-tagged DLC1 (or GFP-tagged DLC2); cleared lysate in NET-N buffer (25 mM Tris-HCl pH 8.0, 50 mM NaCl, 0.2 mM EDTA, 0.1% NP40); anti-Myc antibody overnight at 4°C, protein-A sepharose, 5 washes; blot with anti-FLAG (anti-GFP for DLC2).

For assay [2], the target named is T2, Myc-tagged Tensin2 1-1409 (WT, wild-type) (UniProt Q63HR2).
T2 sequence: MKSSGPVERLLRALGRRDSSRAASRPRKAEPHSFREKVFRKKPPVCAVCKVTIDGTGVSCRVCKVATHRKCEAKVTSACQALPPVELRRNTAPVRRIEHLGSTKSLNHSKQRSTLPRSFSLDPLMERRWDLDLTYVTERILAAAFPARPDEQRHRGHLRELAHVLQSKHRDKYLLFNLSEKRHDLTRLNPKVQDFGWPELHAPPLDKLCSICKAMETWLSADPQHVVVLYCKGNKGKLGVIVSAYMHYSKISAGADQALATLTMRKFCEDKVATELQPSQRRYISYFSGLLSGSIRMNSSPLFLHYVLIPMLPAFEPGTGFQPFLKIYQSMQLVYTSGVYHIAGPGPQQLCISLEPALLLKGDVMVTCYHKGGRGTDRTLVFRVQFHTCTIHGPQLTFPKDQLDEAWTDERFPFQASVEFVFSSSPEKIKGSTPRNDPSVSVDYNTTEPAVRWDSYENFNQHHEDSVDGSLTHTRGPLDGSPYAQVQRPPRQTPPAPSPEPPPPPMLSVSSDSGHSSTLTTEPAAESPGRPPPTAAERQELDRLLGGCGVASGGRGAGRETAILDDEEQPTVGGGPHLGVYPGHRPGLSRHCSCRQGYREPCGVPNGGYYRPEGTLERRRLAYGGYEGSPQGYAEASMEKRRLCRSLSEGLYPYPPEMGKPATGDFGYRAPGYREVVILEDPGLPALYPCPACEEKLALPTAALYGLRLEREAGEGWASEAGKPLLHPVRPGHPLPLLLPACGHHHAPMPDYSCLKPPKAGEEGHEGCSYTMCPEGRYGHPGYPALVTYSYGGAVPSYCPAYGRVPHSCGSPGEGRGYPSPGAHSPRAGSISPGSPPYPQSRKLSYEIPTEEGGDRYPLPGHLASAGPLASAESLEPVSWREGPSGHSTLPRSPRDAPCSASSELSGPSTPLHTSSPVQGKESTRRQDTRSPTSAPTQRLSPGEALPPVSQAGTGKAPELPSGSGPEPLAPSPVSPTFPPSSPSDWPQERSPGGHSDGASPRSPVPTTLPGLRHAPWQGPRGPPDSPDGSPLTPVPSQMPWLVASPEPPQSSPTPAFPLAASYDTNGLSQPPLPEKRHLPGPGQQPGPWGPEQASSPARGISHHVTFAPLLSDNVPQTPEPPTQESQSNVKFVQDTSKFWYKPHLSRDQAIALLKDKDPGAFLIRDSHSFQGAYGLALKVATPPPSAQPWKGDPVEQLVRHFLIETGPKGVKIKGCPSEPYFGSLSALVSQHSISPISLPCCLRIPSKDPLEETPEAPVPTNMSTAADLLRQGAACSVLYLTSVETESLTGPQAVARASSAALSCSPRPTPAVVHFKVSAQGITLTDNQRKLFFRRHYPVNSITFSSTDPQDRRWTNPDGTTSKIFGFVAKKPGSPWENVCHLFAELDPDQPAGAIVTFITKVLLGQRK
Described as above.

These are yes or no findings as the source states them, for the method shown. Binding seen in cells or lysates may run through a third protein. For some of these results: Binding can be weak; no strength is given. Tags and fused reporters may be left off the sequences shown.

Consider “FLAG-tagged DLC1 1-400 (from UniProt Q96QB1-1) (domain or fragment)”, for which the binding result is on record as “no binding” in assay [1] and “binds” in assay [2].

As for “FLAG-tagged DLC1 FL (Deleted in liver cancer 1, wild-type) (from UniProt Q96QB1-1)”, the values for the binding result in assay [1] and in assay [2] were “no binding” and “binds”, respectively.
